# From US20240156973A1, “OSTEOTROPIC COMPOSITIONS AND USES THEREOF” (Purdue Research Foundation, priority 2021, published 2024)
# Part of at least one peptide drawing is inferred or uncertain, most often the ends. At least one compound was matched to its structure with a doubt left.
# Tests used:
# Type in all cases: in vivo
# [1] = test system: 12-week-old male C57BL/6 mice with surgically created fracture; test: Surgically created fracture, µCT images and mRUST scoring
# [2] = test system: female Swiss Webster mice with midshaft femur fractures; test: Midshaft femur fracture healing, post-mortem four-point bend analysis; details: three weeks
# [3] = test system: mice with a surgically created fracture in their right femur; test: Static weightbearing after surgically created femur fracture; details: 3.3 nmol/kg/day, 4 days post-surgery, n=7/group, p=0.04 vs injured controls
# [4] = test system: female Swiss Webster mice with midshaft femur fractures; test: Midshaft femur fracture healing, micro-CT of fracture callus
# Description: Fracture healing was assessed using micro-CT (Scanco Medical Ag or PerkinElmer). […] Morphometric parameters were quantified in an ROI that included just the fracture callus. […] Statistical analysis was performed using a one-way analysis of variance (ANOVA) and a Dunnett's post-hoc analysis with significance reported at the P value of 0.05. All animal experiments were performed in accordance with protocols approved by Purdue University's Institutional Animal Care and Use Committee (IACUC).
# caspase-1 = test: Luciferase imaging of caspase-1 biosensor mice after fracture; details: 3.3 nmol/kg/day for the first week post-surgery, vs saline controls
# [5] = test system: 12-week-old male C57BL/6 mice with surgically created fracture; test: Torsion biomechanical testing of fractured femurs normalized to contralateral femur; details: first week dosing, 3 weeks post-surgery
# [6] = 0.01 or 0.1 nmol/day every three days for three weeks or once a day for one week
# [7] = daily 0.1, 1 and 10 nmol s.c., three weeks
compound,measurement,setting,value
"CC[C@H](C)[C@H](NC(=O)COCCOCCNC(=O)COCCOCCNC(=O)COCCOCCNC(=O)COCCOCCNC(=O)[C@@H](CCC(=O)O)NC(=O)[C@@H](CCC(=O)O)NC(=O)[C@@H](CCC(=O)O)NC(=O)[C@@H](CCC(=O)O)NC(=O)[C@@H](CCC(=O)O)NC(=O)[C@@H](CCC(=O)O)NC(=O)[C@@H](CCC(=O)O)NC(=O)[C@@H](CCC(=O)O)NC(=O)[C@@H](CCC(=O)O)NC(=O)[C@H](N)CCC(=O)O)C(=O)N[C@@H](CCC(=O)O)C(=O)NCC(=O)N1CCC[C@H]1C(=O)N[C@H](C(=O)N[C@@H](CC(C)C)C(=O)N[C@@H](CCCNC(=N)N)C(=O)N[C@@H](CCC(N)=O)C(=O)N[C@@H](Cc1ccc2ccccc2c1)C(=O)N[C@@H](CC(C)C)C(=O)N[C@@H](C)C(=O)N[C@@H](C)C(=O)N[C@@H](CCCNC(=N)N)C(=O)N(C)CC(=O)NCCCC[C@H](NC(=O)CN(C)C(=O)[C@H](CCCNC(=N)N)NC(=O)[C@H](C)NC(=O)[C@H](C)NC(=O)[C@H](CC(C)C)NC(=O)[C@H](Cc1ccc2ccccc2c1)NC(=O)[C@H](CCC(N)=O)NC(=O)[C@H](CCCNC(=N)N)NC(=O)[C@H](CC(C)C)NC(=O)[C@@H](NC(=O)[C@@H]1CCCN1C(=O)CNC(=O)[C@H](CCC(=O)O)NC(=O)[C@@H](NC(=O)COCCOCCNC(=O)COCCOCCNC(=O)COCCOCCNC(=O)COCCOCCNC(=O)[C@@H](CCC(=O)O)NC(=O)[C@@H](CCC(=O)O)NC(=O)[C@@H](CCC(=O)O)NC(=O)[C@@H](CCC(=O)O)NC(=O)[C@@H](CCC(=O)O)NC(=O)[C@@H](CCC(=O)O)NC(=O)[C@@H](CCC(=O)O)NC(=O)[C@@H](CCC(=O)O)NC(=O)[C@@H](CCC(=O)O)NC(=O)[C@H](N)CCC(=O)O)[C@@H](C)CC)[C@@H](C)O)C(=O)O)[C@@H](C)O [targeted TMP conjugate, (D) Glu10(AEEA)4-lie-Glu-Gly-Pro-Thr-Leu-Arg-Gln-Npa-Leu-Ala-Ala-Arg-Sar]","bone bridging/union, mineralization and remodeling in µCT images","[1]; daily for the first week post-surgery (3.3 nmol/kg/day), examined at 3 weeks, vs saline",complete bone bridging/union and improved mineralization and bone remodeling
same,mRUST analyses,"[1]; daily for the first week post-surgery, 3 weeks post-surgery",complete bridging (bone union) on all cortices
same,maximum (Max) load,[2]; 0.001 and 0.01 nmol/day s.c.,lowering the dose of the targeted TMP conjugate improved its efficacy
same,work to fracture,[2]; 0.001 and 0.01 nmol/day s.c.,lowering the dose of the targeted TMP conjugate improved its efficacy
same,work to fracture,"[2]; daily 0.1, 1 and 10 nmol s.c.",increased the total amount of energy absorbed by the healed femur before it refractured
same,weightbearing on injured leg,[3],42.0±2.1%
same,bone volume,"[4]; 0.001 and 0.01 nmol/day s.c., three weeks, vs 1 nmol/day TMP and saline",lowering the dose of the targeted TMP conjugate improved efficacy
same,bone volume/total volume,"[4]; 0.001 and 0.01 nmol/day s.c., vs 1 nmol/day TMP and saline",lowering the dose of the targeted TMP conjugate improved its efficacy
same,"bone volume, effect of dosing frequency",[4]; [6],therapeutic effect is maximized by reducing the number of doses
same,"bone volume/total volume, effect of dosing frequency",[4]; [6],therapeutic effect is maximized by reducing the number of doses
same,bone volume (100 thickest micro-CT slices of fracture callus),[4]; [7],"at higher dose levels, the bodies of the mice started downregulating the response"
same,bone volume/total volume (100 thickest micro-CT slices of fracture callus),[4]; [7],"at higher doses, the bodies of the mice started downregulating the response"
same,"bone volume/total volume, best regimen","[4]; daily dose of 0.1 nmol, compared with daily 1 nmol untargeted TMP",performed the best and exceeded the performance of a daily dose of 1 nmol of untargeted TMP
same,caspase-1 activation (bioluminescence) in injured limb,caspase-1,marked reduction in caspase-1 activation
same,"toughness in torsion, normalized to contralateral femur",[5],improved biomechanical torsion properties
same,"twist to failure in torsion, normalized to contralateral femur",[5],improved biomechanical torsion properties
